The other results are listed elsewhere or left out.
Assays:
Test in all cases: log2 fold change, soluble protein after heating vs DMSO (PISA); higher = thermal stabilisation; K562 lysate, 10 uM; active = over 0.2 and 3.5 SD of the protein, either way, in both replicates (recomputed)
[1] = compound: Cc1cn(-c2cc(NC(=O)c3ccc(C)c(Nc4nccc(-c5cccnc5)n4)c3)cc(C(F)(F)F)c2)cn1 [nilotinib]
Outline: (§1)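 A 30 min treatment with 10 μM compound was applied to crude K562 extract at 1 mg/mL protein in PBS pH 7.4 with 1 mM MgCl2. Heating for 3 min spanned 48°C-58°C, after which aliquots were pooled, adjusted to 0.5% NP-40 at 4°C and spun at 21,000xg for 90 min. TMTpro 16plex LC-MS/MS of the supernatant, with channel sums equalised, gave values recorded as log-two fold change in thermal stability against solvent controls, from duplicates.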

By UniProt entry, the sequences of proteins in these tests, tags left out. Where a name states a change or a piece, a line headed by the entry shows the natural chain unless it says otherwise.
UniProt O00303, whole entry, looked up: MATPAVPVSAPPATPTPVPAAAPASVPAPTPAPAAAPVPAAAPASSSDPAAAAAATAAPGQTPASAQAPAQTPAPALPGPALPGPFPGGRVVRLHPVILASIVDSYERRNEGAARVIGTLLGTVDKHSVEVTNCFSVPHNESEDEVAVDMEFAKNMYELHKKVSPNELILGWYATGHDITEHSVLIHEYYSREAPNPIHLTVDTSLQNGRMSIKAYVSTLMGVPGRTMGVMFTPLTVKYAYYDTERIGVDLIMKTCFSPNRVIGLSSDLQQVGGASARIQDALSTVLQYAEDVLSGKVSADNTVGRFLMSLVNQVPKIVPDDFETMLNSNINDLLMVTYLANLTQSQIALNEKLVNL
UniProt Q9NZ08: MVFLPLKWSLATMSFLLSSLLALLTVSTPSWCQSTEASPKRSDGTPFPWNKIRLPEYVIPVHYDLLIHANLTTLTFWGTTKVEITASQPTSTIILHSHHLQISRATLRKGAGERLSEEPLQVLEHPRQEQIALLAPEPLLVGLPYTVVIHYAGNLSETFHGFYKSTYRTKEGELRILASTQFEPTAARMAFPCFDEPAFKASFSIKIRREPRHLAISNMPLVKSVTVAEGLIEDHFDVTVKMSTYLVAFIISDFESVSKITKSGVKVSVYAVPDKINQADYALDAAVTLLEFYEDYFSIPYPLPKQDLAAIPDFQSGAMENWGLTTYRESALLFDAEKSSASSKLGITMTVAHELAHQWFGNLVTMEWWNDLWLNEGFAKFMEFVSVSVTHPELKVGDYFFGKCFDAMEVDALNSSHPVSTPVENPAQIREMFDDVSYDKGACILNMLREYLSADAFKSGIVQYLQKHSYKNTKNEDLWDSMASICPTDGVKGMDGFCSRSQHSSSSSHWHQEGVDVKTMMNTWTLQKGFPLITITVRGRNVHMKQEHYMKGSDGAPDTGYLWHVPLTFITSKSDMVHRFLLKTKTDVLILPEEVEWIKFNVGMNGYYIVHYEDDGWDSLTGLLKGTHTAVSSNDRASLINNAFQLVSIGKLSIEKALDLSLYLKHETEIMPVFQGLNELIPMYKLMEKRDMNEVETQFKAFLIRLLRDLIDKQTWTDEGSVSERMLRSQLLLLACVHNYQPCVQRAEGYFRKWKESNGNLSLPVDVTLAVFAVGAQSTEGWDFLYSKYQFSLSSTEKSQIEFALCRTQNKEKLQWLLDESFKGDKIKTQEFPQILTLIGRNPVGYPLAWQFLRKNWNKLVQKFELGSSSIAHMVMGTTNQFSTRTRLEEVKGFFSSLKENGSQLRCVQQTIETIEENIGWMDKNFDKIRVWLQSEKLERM
UniProt P60842, whole entry, looked up: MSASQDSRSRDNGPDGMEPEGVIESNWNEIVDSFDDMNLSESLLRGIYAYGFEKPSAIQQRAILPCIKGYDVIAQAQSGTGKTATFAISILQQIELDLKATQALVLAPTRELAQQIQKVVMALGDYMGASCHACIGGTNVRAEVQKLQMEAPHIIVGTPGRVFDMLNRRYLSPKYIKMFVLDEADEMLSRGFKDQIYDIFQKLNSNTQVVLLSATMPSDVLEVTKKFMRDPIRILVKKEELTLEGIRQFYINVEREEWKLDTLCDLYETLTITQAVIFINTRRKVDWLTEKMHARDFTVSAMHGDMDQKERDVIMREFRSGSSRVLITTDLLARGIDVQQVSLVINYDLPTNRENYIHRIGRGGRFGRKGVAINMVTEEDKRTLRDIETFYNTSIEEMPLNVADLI
UniProt Q9NPA0: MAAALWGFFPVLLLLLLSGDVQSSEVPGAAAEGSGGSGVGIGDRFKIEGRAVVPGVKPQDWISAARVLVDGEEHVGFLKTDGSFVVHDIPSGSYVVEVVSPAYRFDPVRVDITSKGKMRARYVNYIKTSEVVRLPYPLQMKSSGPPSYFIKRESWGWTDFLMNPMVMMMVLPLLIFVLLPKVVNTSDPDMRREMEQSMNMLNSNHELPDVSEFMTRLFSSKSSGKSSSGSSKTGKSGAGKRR
UniProt Q14249: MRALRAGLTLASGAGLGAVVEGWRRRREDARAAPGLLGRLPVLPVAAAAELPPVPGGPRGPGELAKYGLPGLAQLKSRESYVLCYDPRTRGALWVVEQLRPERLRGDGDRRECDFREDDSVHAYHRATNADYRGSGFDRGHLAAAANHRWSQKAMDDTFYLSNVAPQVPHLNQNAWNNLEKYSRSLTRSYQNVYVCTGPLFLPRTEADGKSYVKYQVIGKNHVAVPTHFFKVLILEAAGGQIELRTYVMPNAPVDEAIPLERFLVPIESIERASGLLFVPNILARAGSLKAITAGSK
UniProt P28715: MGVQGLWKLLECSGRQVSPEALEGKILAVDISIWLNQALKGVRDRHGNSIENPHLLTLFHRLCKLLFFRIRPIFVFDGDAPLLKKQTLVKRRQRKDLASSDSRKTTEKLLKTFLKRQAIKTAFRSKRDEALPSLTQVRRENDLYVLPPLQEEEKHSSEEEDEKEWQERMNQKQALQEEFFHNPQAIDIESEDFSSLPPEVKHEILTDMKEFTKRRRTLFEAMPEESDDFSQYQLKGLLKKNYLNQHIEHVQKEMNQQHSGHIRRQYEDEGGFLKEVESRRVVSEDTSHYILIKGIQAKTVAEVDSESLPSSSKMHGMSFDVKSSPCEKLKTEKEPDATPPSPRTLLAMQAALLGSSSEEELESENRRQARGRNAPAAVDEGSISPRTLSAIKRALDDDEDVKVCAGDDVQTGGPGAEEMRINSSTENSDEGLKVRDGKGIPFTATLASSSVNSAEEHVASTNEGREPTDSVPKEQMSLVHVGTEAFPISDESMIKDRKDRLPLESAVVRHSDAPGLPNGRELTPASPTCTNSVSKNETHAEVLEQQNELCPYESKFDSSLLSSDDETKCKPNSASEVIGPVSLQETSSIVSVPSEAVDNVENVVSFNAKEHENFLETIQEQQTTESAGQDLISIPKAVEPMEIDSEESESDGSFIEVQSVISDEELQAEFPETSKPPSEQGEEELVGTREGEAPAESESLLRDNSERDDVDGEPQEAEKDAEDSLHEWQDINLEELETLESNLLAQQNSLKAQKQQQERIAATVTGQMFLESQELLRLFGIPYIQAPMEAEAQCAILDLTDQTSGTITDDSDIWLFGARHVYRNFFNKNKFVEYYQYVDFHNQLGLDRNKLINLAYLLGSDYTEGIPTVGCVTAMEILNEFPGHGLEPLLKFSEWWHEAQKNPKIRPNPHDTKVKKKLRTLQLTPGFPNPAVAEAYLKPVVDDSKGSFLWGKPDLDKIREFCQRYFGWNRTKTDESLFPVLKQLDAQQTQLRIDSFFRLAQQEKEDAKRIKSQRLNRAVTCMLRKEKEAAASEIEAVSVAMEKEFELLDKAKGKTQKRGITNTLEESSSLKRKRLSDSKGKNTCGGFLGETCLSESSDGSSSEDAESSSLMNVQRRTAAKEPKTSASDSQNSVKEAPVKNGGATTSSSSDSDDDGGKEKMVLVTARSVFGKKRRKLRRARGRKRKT
UniProt O15372, whole entry, looked up: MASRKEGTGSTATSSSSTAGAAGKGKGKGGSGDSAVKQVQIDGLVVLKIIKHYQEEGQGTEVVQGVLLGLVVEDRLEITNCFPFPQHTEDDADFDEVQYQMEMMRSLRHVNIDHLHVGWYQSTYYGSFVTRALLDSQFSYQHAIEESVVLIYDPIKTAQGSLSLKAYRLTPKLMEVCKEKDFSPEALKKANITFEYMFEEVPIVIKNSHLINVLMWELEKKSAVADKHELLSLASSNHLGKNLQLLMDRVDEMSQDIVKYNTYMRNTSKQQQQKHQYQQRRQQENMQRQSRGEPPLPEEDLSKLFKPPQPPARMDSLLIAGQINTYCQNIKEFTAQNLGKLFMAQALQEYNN
UniProt P23588, whole entry, looked up: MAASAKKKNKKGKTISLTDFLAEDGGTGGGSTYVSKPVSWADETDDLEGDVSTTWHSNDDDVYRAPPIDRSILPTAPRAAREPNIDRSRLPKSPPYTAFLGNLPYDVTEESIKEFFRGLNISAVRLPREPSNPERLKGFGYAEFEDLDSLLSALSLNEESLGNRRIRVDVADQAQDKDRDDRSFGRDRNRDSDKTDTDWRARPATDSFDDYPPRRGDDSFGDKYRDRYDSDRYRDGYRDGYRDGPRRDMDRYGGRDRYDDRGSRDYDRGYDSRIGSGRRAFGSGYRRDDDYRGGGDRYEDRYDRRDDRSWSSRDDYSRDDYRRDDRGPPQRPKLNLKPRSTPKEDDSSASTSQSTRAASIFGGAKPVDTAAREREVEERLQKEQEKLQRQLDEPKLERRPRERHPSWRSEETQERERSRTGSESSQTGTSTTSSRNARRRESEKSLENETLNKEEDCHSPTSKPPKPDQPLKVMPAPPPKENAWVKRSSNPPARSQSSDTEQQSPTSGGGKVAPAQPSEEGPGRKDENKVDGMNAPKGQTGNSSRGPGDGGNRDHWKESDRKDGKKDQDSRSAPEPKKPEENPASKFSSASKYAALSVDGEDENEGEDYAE

[2] = compound: Cc1nc(Nc2n[nH]c3c2CN(C(=O)N[C@H](CN(C)C)c2ccccc2)C3(C)C)c2sccc2n1
Outline: as §1

[3] = compound: Cc1nc(Nc2ncc(C(=O)Nc3c(C)cccc3Cl)s2)cc(N2CCN(CCO)CC2)n1 [dasatinib]
Outline: as §1

[4] = compound: Cc1ncc(-c2ccnc(Nc3ccc(S(C)(=O)=O)cc3)n2)n1C(C)C
Outline: as §1

[5] = compound: Cn1cc(-c2ccc3c(c2)CCN3C(=O)Cc2cccc(C(F)(F)F)c2)c2c(N)ncnc21
Outline: as §1

[6] = compound: Cn1cc(CNCC2CCN(c3ncc(C(=O)NO)cn3)CC2)c2ccccc21 [quisinostat]
Outline: as §1

[7] = compound: Cn1cncc1[C@@](N)(c1ccc(Cl)cc1)c1ccc2c(c1)c(-c1cccc(Cl)c1)cc(=O)n2C [tipifarnib]
Outline: as §1

[8] = compound: NC(=O)Nc1cc(-c2cccc(F)c2)sc1C(=O)N[C@H]1CCCNC1
Outline: as §1

[9] = compound: NC(=O)c1cnc(N[C@@H]2CCCC[C@@H]2N)nc1Nc1cccc(-n2nccn2)c1
Outline: as §1

[10] = compound: NC1(c2ccc(-c3nc4ccn5c(=O)[nH]nc5c4cc3-c3ccccc3)cc2)CCC1
Outline: as §1

[11] = compound: NCC(=O)Nc1ccc(-n2nc(C(F)(F)F)cc2-c2ccc3c(ccc4ccccc43)c2)cc1
Outline: as §1

[12] = compound: O=C(CCCCCCC(=O)Nc1ccccc1)NO [vorinostat]
Outline: as §1

[13] = compound: O=C(O)c1ccc2c(c1)nc(Nc1cccc(Cl)c1)c1ccncc12 [silmitasertib]
Outline: as §1

[14] = compound: O=C1NC(=O)C(c2cnc3ccccn23)=C1c1cn2c3c(cc(F)cc13)CN(C(=O)N1CCCCC1)CC2
Outline: as §1

[15] = compound: c1cn2cc(-c3ccc4cn[nH]c4c3)nc(Nc3ccc(N4CCOCC4)cc3)c2n1 [entospletinib]
Outline: as §1

Measured: log2 fold change

EIF3F (UniProt O00303)
inactive: [1] -0.023 | [2] -0.01 | [3] -0.039 | [4] 0.006 | [5] 0.023 | [6] 0.006 | [7] -0.005 | [8] 0.01 | [9] -0.005 | [10] -0.025 | [11] -0.025 | [12] -0.065 | [13] 0.005 | [14] -0.053 | [15] 0.038

ERAP1 isoform 2 (UniProt Q9NZ08)
inactive: [1] 0.003 | [2] -0.013 | [3] 0.055 | [4] 0.012 | [5] 0.009 | [6] 0.011 | [7] -0.01 | [8] 0.001 | [9] -0.002 | [10] -0.022 | [11] -0.018 | [12] 0.074 | [13] 0.003 | [14] -0.033 | [15] 0.01

EIF4A1 (UniProt P60842)
inactive: [1] 0 | [2] -0.013 | [3] -0.006 | [4] 0.008 | [5] -0.003 | [6] -0.06 | [7] 0.009 | [8] 0.028 | [9] -0.004 | [10] -0.014 | [11] 0.04 | [12] 0.066 | [13] -0.012 | [14] 0.015 | [15] 0.034

EMC2 (UniProt Q15006)
inactive: [1] 0.005 | [2] -0.015 | [3] 0.01 | [4] -0.016 | [5] 0.031 | [6] 0.026 | [7] 0.015 | [8] 0.02 | [9] 0.008 | [10] -0.009 | [11] -0.009 | [12] 0.046 | [13] 0.021 | [14] -0.029 | [15] -0.005

EMC7 (UniProt Q9NPA0)
inactive: [1] 0.047 | [2] -0.015 | [3] -0.022 | [4] 0.027 | [5] 0.001 | [6] -0.006 | [7] -0.014 | [8] -0.003 | [9] 0.014 | [10] -0.073 | [11] 0.015 | [12] 0.085 | [13] -0.007 | [14] -0.018 | [15] -0.023

ENDOG (UniProt Q14249)
inactive: [1] -0.024 | [2] -0.043 | [3] 0.007 | [4] -0.084 | [5] 0.006 | [6] 0.005 | [7] -0.066 | [8] 0.026 | [9] 0.024 | [10] 0.006 | [11] 0.004 | [12] 0.044 | [13] -0.023 | [14] -0.026 | [15] 0.012

ERCC5 (UniProt P28715)
inactive: [1] -0.002 | [2] -0.054 | [3] 0.044 | [4] 0.011 | [5] 0.031 | [6] 0.029 | [7] -0.027 | [8] 0.023 | [9] 0.001 | [10] -0.028 | [11] 0 | [12] -0.017 | [13] 0.044 | [14] 0.055 | [15] 0.033

EIF3H (UniProt O15372)
inactive: [1] -0.007 | [2] 0.008 | [3] 0.032 | [4] -0.017 | [5] -0.009 | [6] -0.065 | [7] 0.004 | [8] -0.004 | [9] 0.008 | [10] -0.027 | [11] 0.001 | [12] 0.022 | [13] 0.009 | [14] -0.011 | [15] 0.014

EPPK1 (UniProt P58107)
inactive: [1] 0 | [2] -0.001 | [3] -0.017 | [4] -0.003 | [5] -0.028 | [6] -0.084 | [7] -0.003 | [8] 0.056 | [9] 0.048 | [10] -0.035 | [11] 0.018 | [12] -0.08 | [13] 0 | [14] 0.02 | [15] 0.015

EIF4B (UniProt P23588)
inactive: [1] 0.009 | [2] -0.015 | [3] 0.027 | [4] -0.035 | [5] 0.011 | [6] 0.004 | [7] 0.005 | [8] -0.037 | [9] -0.013 | [10] 0.007 | [11] 0.063 | [12] 0.135 | [13] 0.004 | [14] 0.013 | [15] -0.019
